Results are given in words; binding and its absence hold for the method and conditions named. In cells and extracts the contact can be indirect. Here binding means that the protein was enriched with, or labelled near, the bait; the list need not be complete.
Molecular target: Membrane frizzled-related protein (MFRP), native bovine RPE (bovine (endogenous in RPE))
Test: affinity purification with mass spectrometry; detergent-free native bovine RPE membranes solubilized with SMA copolymers (lipid nano-disks); anti-MFRP resins vs. normal-IgG control resins; quantitative MS

binding: binds
B1: Inward rectifier potassium channel 13 (KCNJ13), native bovine RPE (protein, UniProt E1BN00 1-360)
chain: MDGSHCKVIAPLLTERHQRMVTKDGHSTLQMDGAQTGLAYLRDAWGILMDMRWRWMMLVFSASFVIHWLVFAVLWYILAEMNGDLGLDHDAPPENHTICVKYITSFTAAFSFSLETQLTIGYGTMFPSGDCPSAIALLAIQMLLGLMLEAFITGAFVAKIARPKNRAFSIRFTDLAVVAHIDGKPNLIFQVANTRPSPLTNVRVSAVLYQERENGKLYQTSVDFHLDGISSEECPFFIFPLTYYHSIIPSSPLATLLQHENPPHFELVVFLSAMQEGTGETCQRRTSYLPSEIMLHHCFASLLARGSKGEYQIKMENFDKTTPEFQTPLVSKSPNRTDLDIHINGQSIDNFQISETGLTE

Source: article PMC12036977
